# Measurements reported in PubChem BioAssay AID1259254 (NCATS, 2017)
# Assay: 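Gene knock-downs that lead to re-replication, shown by excess G2 DNA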 (primary screen)
# Cell system: human HCT116 colorectal cancer cells
# Reagent: single siRNA against human genes
# Timing: 3 days
# Read-out: 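Imaged Hoechst DNA stain sorts each cell into a cycle phase by DNA amount; per plate, G2 fraction set to 0% for non-targeting and 100% for GMNN siRNA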
# Direction: G2 robust z-score and G2 cells, % of GMNN control: higher = more G2 cells, more excess DNA replication; raw share of cells in G2: higher = larger share of cells with G2 DNA content
# Call rule: 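An siRNA counts as active if its G2 robust z-score lies at least 5 MADs above the screen median; here such calls match roughly 38% of GMNN control or more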
# Here is one part, drawn at random, of about 59,000 reagents. In the full data, about 1,550 (2.6%) got an active call. 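G2 share is only a proxy for re-replication; each gene was hit by three separate siRNAs, and active genes were retested.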 Raw values are not corrected between plates. Unmarked entries are inactive. The record does not give: the amount of reagent.
gene,PubChem SID,G2 robust z-score,"G2 cells, % of GMNN control",raw share of cells in G2 (%)
CMIP,SID160750573,-0.118,2.14,5.33
CMIP,SID160750574,0.848,8.94,8.21
CMIP,SID160750577,-0.557,-0.951,2.12
ZNF467,SID160760314,-0.331,0.641,3.31
ZNF467,SID160760315,1.19,11.3,7.1
ZNF467,SID160760317,4.86,37.2,16.6
SPRN,SID160733470,0.66,7.61,5.71
SPRN,SID160768298,0.458,6.19,6.01
SPRN,SID160768299,1.29,12,7.98
TXNRD1,SID160775970,0.0244,3.14,6.92
TXNRD1,SID160775980,-0.372,0.353,4.59
TXNRD1,SID160775991,-0.223,1.4,4.78
CYGB,SID160730542,-0.952,-3.73,3.94
CYGB,SID160754943,2.29,19.1,11.7
CYGB,SID160754944,-0.566,-1.01,4.53
ZNF384,SID160760488,2.64,21.6,13.8
ZNF384,SID160760489,1.64,14.5,12.9
ZNF384,SID160760490,12.6 (active),91.5,38.2
H2AC14,SID160724132,4.01,31.2,19
H2AC14,SID160724133,0.566,6.95,6.65
H2AC14,SID160724134,-0.159,1.85,4
IL19,SID160739371,1.05,10.3,7.8
IL19,SID160739372,0.0989,3.66,5.93
IL19,SID160739373,2.32,19.3,9.34
OR2AE1,SID160750722,-0.518,-0.678,4.16
OR2AE1,SID160750723,1,10,8.69
OR2AE1,SID160750724,0.469,6.27,4.09
ABHD15,SID160755378,-0.513,-0.644,3.83
ABHD15,SID160755379,-0.322,0.705,3.54
ABHD15,SID160755380,0.611,7.27,3.94
HELZ2,SID160753282,-0.299,0.866,6.07
HELZ2,SID160753283,3.03,24.3,15.4
HELZ2,SID160753284,-1.4,-6.87,1.89

Limited to “raw share of cells in G2 (%)”, for 6 of the entries above:
IL19 [SID160739372]	5.93
IL19 [SID160739373]	9.34
OR2AE1 [SID160750722]	4.16
OR2AE1 [SID160750723]	8.69
OR2AE1 [SID160750724]	4.09
ABHD15 [SID160755378]	3.83

The listing continues.
gene,PubChem SID,G2 robust z-score,"G2 cells, % of GMNN control",raw share of cells in G2 (%)
VN1R2,SID160731070,-1.07,-4.59,2.91
VN1R2,SID160763912,0.295,5.05,7.65
VN1R2,SID160763913,0.908,9.35,6.14
GOLPH3,SID160747415,-0.179,1.71,5.33
GOLPH3,SID160747416,3.79,29.6,17.9
GOLPH3,SID160747417,-0.698,-1.94,2.18
IFNE,SID160764022,0.547,6.82,6.33
IFNE,SID160764023,-0.733,-2.19,2.3
IFNE,SID160764024,2.01,17.1,11.1
GRIK2,SID160774355,0.413,5.88,7.43
GRIK2,SID160774362,-1.62,-8.41,1.94
GRIK2,SID160774371,-1.1,-4.75,2.52
KIRREL2,SID160751646,0.628,7.39,6.57
KIRREL2,SID160751648,2.64,21.5,9.84
KIRREL2,SID160751649,0.46,6.2,4.29
DPP10,SID160746448,-0.524,-0.719,2.54
DPP10,SID160746449,-0.823,-2.82,4.63
DPP10,SID160746450,2.35,19.5,9.76
LINC02911,SID160733202,-0.907,-3.42,3.17
LINC02911,SID160765799,0.184,4.26,5.23
LINC02911,SID160765800,-0.0667,2.5,4.49
CPNE9,SID160759158,-0.677,-1.8,3.23
CPNE9,SID160759159,-0.757,-2.36,2.18
CPNE9,SID160759160,0.199,4.37,4.59
PCDH20,SID160748110,0.371,5.58,6.25
PCDH20,SID160748111,-0.247,1.23,4.78
PCDH20,SID160748112,-0.881,-3.23,4.31
HIC2,SID160735495,2.21,18.5,10.2
HIC2,SID160735496,1.37,12.6,11.4
HIC2,SID160735497,0.132,3.9,5.46
ODAD3,SID160755297,-0.902,-3.38,2.74
ODAD3,SID160755298,-1.24,-5.74,1.62
ODAD3,SID160755299,1.07,10.5,4.88
TAS2R20,SID160762633,-0.116,2.15,4.43
TAS2R20,SID160762634,-0.628,-1.45,2.48
TAS2R20,SID160762635,0.924,9.47,6.15
